Experimental data as given in publication PMC5035049, “Solution Structure of the Cuz1 AN1 Zinc Finger Domain: An Exposed LDFLP Motif Defines a Subfamily of AN1 Proteins” (PLoS ONE, 2016).
These are yes or no findings as the source states them, for the method shown. Where a sequence is shown, tags or fusion partners need not be part of it.

Sequences of proteins named here, by UniProt entry; tags and fusion partners are left off. Residues count along the entry.
UniProt P0CG63, residues 1-76: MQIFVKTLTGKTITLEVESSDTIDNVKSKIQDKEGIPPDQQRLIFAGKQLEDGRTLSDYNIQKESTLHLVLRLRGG

T1: Cuz1 AN1 zinc finger domain, residues 11-59, with N-terminal 6x-Histidine tag (plasmid pJH190) (S. cerevisiae) (UniProt P53899)
T1 sequence: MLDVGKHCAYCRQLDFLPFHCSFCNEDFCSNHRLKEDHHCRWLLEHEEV


How the values were obtained:
[1] = biological target: T1, Cuz1 AN1 zinc finger domain, residues 11-59, with N-terminal 6x-Histidine tag (plasmid pJH190) (S. cerevisiae); assay: NMR titration; unlabeled recombinant 6xHis-tagged monoubiquitin added to the Cuz1 AN1 ZnF; spectral shifts looked for; both purified
[2] = biological target: T1, Cuz1 AN1 zinc finger domain, residues 11-59, with N-terminal 6x-Histidine tag (plasmid pJH190) (S. cerevisiae); assay: SEC; Superdex 75 16/60 column, purified Cuz1 AN1 ZnF protein, molecular weight size standards for reference; both purified

Row | Molecule | binding [1] | binding [2]
1 | recombinant 6xHis-tagged monoubiquitin (from UniProt P0CG63 1-76) | no binding | 
2 | MLDVGKHCAYCRQLDFLPFHCSFCNEDFCSNHRLKEDHHCRWLLEHEEV (domain or fragment, UniProt P53899 11-59) [Cuz1 AN1 zinc finger domain, residues 11-59, with N-terminal 6x-Histidine tag (plasmid pJH190)] |  | no binding
